The values that follow come from the supplement of paper PMC3545927.

Chains of the proteins cited; added tags and fusions are not shown.
furin, P09958, UniProt P09958, whole entry: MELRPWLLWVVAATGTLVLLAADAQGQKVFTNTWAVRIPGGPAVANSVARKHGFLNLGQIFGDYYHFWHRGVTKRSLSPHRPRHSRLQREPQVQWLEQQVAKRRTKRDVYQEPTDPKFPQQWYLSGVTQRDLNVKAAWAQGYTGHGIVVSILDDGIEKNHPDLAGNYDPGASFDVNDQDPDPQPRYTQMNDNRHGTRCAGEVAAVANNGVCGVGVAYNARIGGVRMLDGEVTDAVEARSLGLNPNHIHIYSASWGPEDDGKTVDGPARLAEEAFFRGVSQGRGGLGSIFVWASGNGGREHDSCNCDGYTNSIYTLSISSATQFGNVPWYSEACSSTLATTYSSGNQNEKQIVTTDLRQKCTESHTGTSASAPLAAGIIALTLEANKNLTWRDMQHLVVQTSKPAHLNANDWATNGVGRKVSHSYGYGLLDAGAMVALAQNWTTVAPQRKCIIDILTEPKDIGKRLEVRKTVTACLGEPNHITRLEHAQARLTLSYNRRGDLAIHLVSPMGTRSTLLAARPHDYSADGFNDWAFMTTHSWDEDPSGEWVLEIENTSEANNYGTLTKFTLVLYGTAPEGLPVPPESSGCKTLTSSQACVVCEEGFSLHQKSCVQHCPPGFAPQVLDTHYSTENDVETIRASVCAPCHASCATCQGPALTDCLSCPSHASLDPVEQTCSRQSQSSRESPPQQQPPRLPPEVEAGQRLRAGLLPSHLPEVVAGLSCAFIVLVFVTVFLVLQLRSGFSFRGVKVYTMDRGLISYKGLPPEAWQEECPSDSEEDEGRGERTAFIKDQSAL

The list shows a part of the results, in another mix than the full data.

This experiment addresses furin, P09958. The experiment is described as follows: furin cleavage Z-score vs untreated control; higher = more cleavage, active = 3.5 or more, inactive = 1 or less, 8 variable residues between constant flanks. Summed up: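 In 50 mM HEPES pH 7.5 with CaCl2 and NaCl, purified furin was incubated with bead-anchored 8-mer peptide–cDNA fusions at 1:10 enzyme:substrate in 0.01 ml. Incubation times were 7.5, 15 and 30 min. DNA set free by cleavage was adapter-tagged by PCR and sequenced, with read counts taken as abundance. Log counts relative to furin-free reactions, after lowess adjustment and median absolute deviation scaling, form the cleavage Z-score.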

Turning to CAWVCCSMSYAGNASASA [HC1988], the “furin cleavage Z-score” value was inactive: 0.172 (7.5 min), inactive: 0.44 (15 min) and 1.05 (30 min).

For CANVRGGRDAAGNASASA [HC593], the “furin cleavage Z-score” value runs as follows: (7.5 min) 1.4; (15 min) 1.66; (30 min) 1.07.

Consider CAGARRLRRFAGNASASA [FS-1196], for which the “furin cleavage Z-score” value reads like this: (7.5 min) 1.71; (15 min) 2.31; (30 min) 2.32.

As for CARKRRAPHGAGNASASA [FS-2493], the “furin cleavage Z-score” value (7.5 min) is active: 4.63, the “furin cleavage Z-score” value (15 min) is active: 5.64 and the “furin cleavage Z-score” value (30 min) was active: 5.6.

With CAMLEVVTSTAGNASASA [HC2266], the “furin cleavage Z-score” value was 1.49 (7.5 min), 1.72 (15 min) and 2.65 (30 min).

Take CALRSRRRRPAGNASASA [FS-1600]: the “furin cleavage Z-score” value (7.5 min) came to 1.5, the “furin cleavage Z-score” value (15 min) amounted to 3.06 and the “furin cleavage Z-score” value (30 min) is 1.85.

For CAWGPTDPRRAGNASASA [HC214], the “furin cleavage Z-score” value (7.5 min) is 2.36, the “furin cleavage Z-score” value (15 min) was found to be 1.81 and the “furin cleavage Z-score” value (30 min) came to 1.68.

As for CARKAREVCDAGNASASA [FS-1900], the “furin cleavage Z-score” value is, setting by setting: (7.5 min) active: 5.27; (15 min) active: 5.4; (30 min) active: 4.27.

Consider CARRVRCSGAAGNASASA [FS-2802], for which the “furin cleavage Z-score” value (7.5 min) is inactive: -0.409, the “furin cleavage Z-score” value (15 min) is inactive: 0.495 and the “furin cleavage Z-score” value (30 min) was inactive: 0.927.

Regarding CAVKPRPARSAGNASASA [FS-1499], the “furin cleavage Z-score” value is, setting by setting: (7.5 min) active: 10.9; (15 min) active: 11.1; (30 min) active: 7.25.

Take CARRRRAVLPAGNASASA [FS-2372]: the “furin cleavage Z-score” value by setting is: (7.5 min) 2.18; (15 min) 1.33; (30 min) 3.45.

For CARLLRDADDAGNASASA [FS-2278], the “furin cleavage Z-score” value by setting is: (7.5 min) inactive: -0.832; (15 min) inactive: -0.574; (30 min) inactive: -0.464.

For the sequence CADLGRHYRSAGNASASA [FS-983], the “furin cleavage Z-score” value is, setting by setting: (7.5 min) 1.95; (15 min) 3.05; (30 min) 3.2.

In the case of CAMEECSMHLAGNASASA [HC1726], the “furin cleavage Z-score” value worked out at 3.14 (7.5 min), 1.13 (15 min) and 2.11 (30 min).

On to CAMEECSQHMAGNASASA [HC1766], for which the “furin cleavage Z-score” value (7.5 min) was 1.43, the “furin cleavage Z-score” value (15 min) was 1.54 and the “furin cleavage Z-score” value (30 min) was 1.41.

As for CARLLRSLTHAGNASASA [FS-2993], for the setting “30 min”, the “furin cleavage Z-score” value was active: 4.05.

Turning to CARPGRFDRQAGNASASA [FS-862], the “furin cleavage Z-score” value is, setting by setting: (7.5 min) 1.79; (15 min) 2.78; (30 min) 2.17.

Take CARLRRGLPAAGNASASA [FS-2575]: the “furin cleavage Z-score” value reads like this: (7.5 min) 3.32; (15 min) 2.56; (30 min) 3.41.

Regarding CAKEMEECSQAGNASASA [HC1794], the “furin cleavage Z-score” value (7.5 min) is inactive: 0.752, the “furin cleavage Z-score” value (15 min) was inactive: 0.717 and the “furin cleavage Z-score” value (30 min) is inactive: 0.689.

Take CARRRRHPDDAGNASASA [FS-3063]: the “furin cleavage Z-score” value is 3.1 (7.5 min), active: 4.81 (15 min) and active: 3.91 (30 min).

As to CARHRRAAGGAGNASASA [FS-2144], the “furin cleavage Z-score” value is, setting by setting: (7.5 min) active: 5.47; (15 min) active: 4.69; (30 min) active: 5.6.

As to CARQERSTKEAGNASASA [FS-2062], the “furin cleavage Z-score” value (7.5 min) came out at 1.5, the “furin cleavage Z-score” value (15 min) is 2.03 and the “furin cleavage Z-score” value (30 min) was 2.49.

In the case of CARRKRHISVAGNASASA [FS-3262], the “furin cleavage Z-score” value is active: 5.85 (7.5 min), active: 5.59 (15 min) and active: 7.18 (30 min).

With CARRKRQVRRAGNASASA [FS-2370], the “furin cleavage Z-score” value reads like this: (7.5 min) active: 6.85; (15 min) active: 8.4; (30 min) active: 6.39.

As for CARSARAAAAAGNASASA [FS-2456], the “furin cleavage Z-score” value is 2.48 (7.5 min), 2.76 (15 min) and 2.63 (30 min).
